Laboratory results published in patent US20180044422A1, “TREATING SOLID TUMOR BY TARGETING DECTIN-1 SIGNALING” (New York University, priority 2016, published 2018).
These are yes or no findings as the source states them, for the method shown. For some of these results: Binding seen in cells or lysates may run through a third protein. Some entries that bind do so weakly or less than the wild type. Where a sequence is shown, tags or fusion partners need not be part of it. Each block holds one binder with its values, some of them ahead of it.

Protein sequences, listed by entry. Tags and fused reporters are not part of them. Lines headed by an entry give the natural chain unless they say otherwise; changes in a name come on top.
UniProt O08573: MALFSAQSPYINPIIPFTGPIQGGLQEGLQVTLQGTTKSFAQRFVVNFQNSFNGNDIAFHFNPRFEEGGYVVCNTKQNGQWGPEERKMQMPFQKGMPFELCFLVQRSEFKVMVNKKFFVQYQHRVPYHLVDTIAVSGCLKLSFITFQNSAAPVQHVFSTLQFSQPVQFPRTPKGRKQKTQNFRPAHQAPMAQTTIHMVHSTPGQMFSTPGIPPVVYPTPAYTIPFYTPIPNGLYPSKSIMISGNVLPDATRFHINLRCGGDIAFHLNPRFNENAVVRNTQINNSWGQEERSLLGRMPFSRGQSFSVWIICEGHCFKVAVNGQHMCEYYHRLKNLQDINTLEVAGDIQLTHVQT

Columns and labels:
[1] = biological target: recombinant mouse Galectin-9 (R&D Systems) (mouse) (UniProt O08573); assay: protein G magnetic beads loaded with Dectin-1 IgG Fc, recombinant Galectin-9, fluorescent anti-Galectin-9, flow cytometry
[2] = biological target: recombinant mouse Galectin-9 (R&D Systems) (mouse) (UniProt O08573); assay: ELISA, Galectin-9-coated plate, increasing doses of Dectin-1 IgG Fc, anti-IgG-HRP
[3] = biological target: Galectin-9 (Lgals9), endogenous, from KPC tumor cell lysate or KC pancreatic tissue extract (mouse) (UniProt O08573); assay: Precipitation from the pancreatic tissue extract of 6 month-old KC mice with Dectin-1 IgG Fc on protein G beads, Western blot for Galectin-9 [cont.) J]
[4] = biological target: Galectin-9 (Lgals9), endogenous, from KPC tumor cell lysate or KC pancreatic tissue extract (mouse) (UniProt O08573); assay: precipitation from pancreatic tissue extract of 6 month-old KC mice, Western blot for Galectin-9
[5] = biological target: recombinant mouse Galectin-9 (R&D Systems) (mouse) (UniProt O08573); assay: ELISA, plates coated with Gal-9, Gal-3 or Gal-4 in parallel, Dectin-1 IgG Fc at 2.5 µg/ml, detection with anti-IgG-HRP. The sheet draws one bar per galectin and does not name the Fc protein [cont.) I]
[6] = biological target: recombinant mouse Galectin-9 (R&D Systems) (mouse) (UniProt O08573); assay: pull-down on protein G beads with Galectin-9 pre-incubated with 100 mM lactose, SDS-PAGE, Coomassie Blue
[7] = biological target: recombinant mouse Galectin-9 (R&D Systems) (mouse) (UniProt O08573); assay: ELISA, plate coated with Galectin-9, increasing doses of murine Dectin-1 IgG Fc, detection with anti-IgG-HRP [cont.) G]
[8] = biological target: recombinant mouse Galectin-9 (R&D Systems) (mouse) (UniProt O08573); assay: Pull-down of recombinant mouse Galectin-9 with Dectin-1 IgG Fc on protein G beads, with or without 100 mM lactose; SDS-PAGE, Coomassie Blue [cont.) K]
[9] = biological target: recombinant mouse Galectin-9 (R&D Systems) (mouse) (UniProt O08573); assay: Pull-down of recombinant mouse Galectin-9 with PNGase F treated Dectin-1 IgG Fc on protein G beads; SDS-PAGE, Coomassie Blue [cont.) K]
[10] = biological target: recombinant mouse Galectin-9 (R&D Systems) (mouse) (UniProt O08573); assay: pull-down on protein G beads, SDS-PAGE, Coomassie Blue

binding [1]: binds | binding [2]: binds | binding [3]: binds | binding [4]: binds | binding [5]: binds | binding [6]: binds | binding [7]: binds | binding [8]: binds
B1: human IgG Fc-conjugated Dectin-1 fusion protein (murine Dectin-1 IgG Fc; fc-mdec1a, InvivoGen) (Fc fusion, mouse, UniProt Q6QLQ4 69-244, looked up, not shown: a dimerising Fc or GST)
chain: EYGHNSGRNPEEKDNFLSRNKENHKPTESSLDEKVAPSKASQTTGGFSQPCLPNWIMHGKSCYLFSFSGNSWYGSKRHCSQLGAHLLKIDNSKEFEFIESQTSSHRINAFWIGLSRNQSEGPWFWEDGSAFFPNSFQVRNTAPQESLLHNCVWIHGSEVYNQICNTSSYSICEKEL

binding [9]: binds | binding [10]: binds
B2: Dectin-1 IgG Fc treated with PNGase F (Fc fusion, mouse, UniProt Q6QLQ4 69-244, looked up, not shown: a dimerising Fc or GST)
chain: B1 chain
modifications: N-linked glycans cleaved with PNGase F (non-denaturing protocol, 37 C, 24 hr)
